Some of these results come from one statement about several compounds together.
Columns and labels:
[1] = molecular target: T1, hEP2 (Homo sapiens, UniProt P43116); assay: hEP2 cAMP assay; format: cell-based; details: summary in words of Tables 22 to 25
T1 construct: expressed in transfected cells; host or cells: HEK293

By UniProt entry, the sequences of proteins in these tests, tags left out. Where a name states a change or a piece, a line headed by the entry shows the natural chain unless it says otherwise.
UniProt P43116: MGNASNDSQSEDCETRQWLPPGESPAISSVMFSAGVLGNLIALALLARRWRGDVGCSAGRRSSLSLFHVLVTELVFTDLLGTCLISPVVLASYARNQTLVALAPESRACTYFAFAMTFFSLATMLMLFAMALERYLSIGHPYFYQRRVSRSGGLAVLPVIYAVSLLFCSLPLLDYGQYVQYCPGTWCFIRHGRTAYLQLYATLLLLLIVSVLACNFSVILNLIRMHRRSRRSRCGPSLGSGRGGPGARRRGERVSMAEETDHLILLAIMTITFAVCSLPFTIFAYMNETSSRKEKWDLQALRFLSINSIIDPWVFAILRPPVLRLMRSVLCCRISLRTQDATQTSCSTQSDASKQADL
UniProt P35408: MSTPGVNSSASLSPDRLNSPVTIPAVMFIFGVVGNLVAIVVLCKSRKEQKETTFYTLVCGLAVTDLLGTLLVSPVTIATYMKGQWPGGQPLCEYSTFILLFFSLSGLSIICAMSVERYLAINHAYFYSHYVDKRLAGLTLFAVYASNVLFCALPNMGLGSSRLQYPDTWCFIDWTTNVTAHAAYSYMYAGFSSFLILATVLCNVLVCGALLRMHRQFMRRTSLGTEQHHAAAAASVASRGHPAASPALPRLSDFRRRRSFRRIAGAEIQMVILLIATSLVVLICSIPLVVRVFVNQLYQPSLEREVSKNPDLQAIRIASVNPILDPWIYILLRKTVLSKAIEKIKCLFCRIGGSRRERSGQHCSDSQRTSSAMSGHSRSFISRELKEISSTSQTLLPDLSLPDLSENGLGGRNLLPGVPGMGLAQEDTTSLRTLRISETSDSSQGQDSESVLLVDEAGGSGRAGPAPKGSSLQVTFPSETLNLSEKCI

[2] = molecular target: T2, hEP4 (Homo sapiens, UniProt P35408); assay: hEP4 cAMP assay; format: cell-based; details: summary in words of Tables 22 to 25
T2 construct: expressed in transfected cells; host or cells: HEK293

| Compound | inhibitory activity on EP2 [1] | inhibitory activity on EP4 [2] |
| --- | --- | --- |
| Cc1ccc(Cc2c(C)sc(C)c2C(=O)NC2CC3(C2)CC(C(=O)O)C3)cc1 (stereo not shown) [Example 2, 6-(2,5-dimethyl-4-(4-methylbenzyl)thiophene-3-carboxamido)spiro[3.3]heptane-2-carboxylic acid] | excellent inhibitory activity | excellent inhibitory activity |
| Cc1sc(C)c(C(=O)NC2CC3(C2)CC(C(=O)O)C3)c1Cc1ccc(-c2cnn(C)c2)cc1 (stereo not shown) [Example 39, 6-(2,5-dimethyl-4-(4-(1-methyl-1H-pyrazol-4-yl)benzyl)thiophene-3-carboxamido)spiro[3.3]heptane-2-carboxylic acid] | excellent inhibitory activity | excellent inhibitory activity |
| Cc1cnn(-c2ccc(Cn3ccc4scc(C(=O)NC5CC6(C5)CC(C(=O)O)C6)c43)cc2)c1 (stereo not shown) [Example 111, 6-(4-(4-(4-methyl-1H-pyrazol-1-yl)benzyl)-4H-thieno[3,2-b]pyrrole-3-carboxamido)spiro[3.3]heptane-2-carboxylic acid] | excellent inhibitory activity | excellent inhibitory activity |
| O=C(NC12CCC(C(=O)O)(CC1)CC2)c1csc2ccn(Cc3ccc(-c4ccccc4)cc3)c12 [Example 88, 4-(4-([1,1′-biphenyl]-4-ylmethyl)-4H-thieno[3,2-b]pyrrole-3-carboxamido)bicyclo[2.2.2]octane-1-carboxylic acid] | excellent inhibitory activity | excellent inhibitory activity |
| Cc1sc(C)c(C(=O)NC2CC3(C2)CC(C(=O)O)C3)c1Cc1ccc(-c2ccc(OC(F)(F)F)cc2)cc1 (stereo not shown) [Example 42, 6-(2,5-dimethyl-4-((4′-(trifluoromethoxy)-[1,1′-biphenyl]-4-yl)methyl)thiophene-3-carboxamido)spiro[3.3]heptane-2-carboxylic acid] | excellent inhibitory activity | excellent inhibitory activity |
| Cc1sc(C)c(C(=O)NC2CC3(C2)CC(C(=O)O)C3)c1Cc1ccc(-c2cccc(F)c2)cc1 (stereo not shown) [Example 43, 6-(4-((3′-fluoro-[1,1′-biphenyl]-4-yl)methyl)-2,5-dimethylthiophene-3-carboxamido)spiro[3.3]heptane-2-carboxylic acid] | excellent inhibitory activity | excellent inhibitory activity |
| Cc1sc(C)c(C(=O)NC2CC3(C2)CC(C(=O)O)C3)c1Cc1ccc(-c2ccc(C(=O)OC(C)(C)C)cc2)cc1 (stereo not shown) [Example 36, 6-(4-((4′-(tert-butoxycarbonyl)-[1,1′-biphenyl]-4-yl)methyl)-2,5-dimethylthiophene-3-carboxamido)spiro[3.3]heptane-2-carboxylic acid] | excellent inhibitory activity | excellent inhibitory activity |
| Cc1sc(C)c(C(=O)NC2CC3(C2)CC(C(=O)O)C3)c1Cc1ccc(C2CCCCC2)cc1 (stereo not shown) [Example 67, 6-(4-(4-cyclohexylbenzyl)-2,5-dimethylthiophene-3-carboxamido)spiro[3.3]heptane-2-carboxylic acid] | excellent inhibitory activity | excellent inhibitory activity |
| Cc1sc(C)c(C(=O)NC2CC3(C2)CC(C(=O)O)C3)c1Cc1ccc(-c2cc(F)cc(OC(C)C)c2)cc1 (stereo not shown) [Example 46, 6-(4-((3′-fluoro-5′-isopropoxy-[1,1′-biphenyl]-4-yl)methyl)-2,5-dimethylthiophene-3-carboxamido)spiro[3.3]heptane-2-carboxylic acid] | excellent inhibitory activity | excellent inhibitory activity |
| Cc1sc(C)c(C(=O)NC2CC3(C2)CC(C(=O)O)C3)c1CN1CCN(c2ccccc2)CC1 (stereo not shown) [Example 77, 6-(2,5-dimethyl-4-((4-phenylpiperazin-1-yl)methyl)thiophene-3-carboxamido)spiro[3.3]heptane-2-carboxylic acid] | excellent inhibitory activity | excellent inhibitory activity |
| O=C(NC1CC2(C1)CC(C(=O)O)C2)c1cscc1Cc1ccc(-c2ccccc2)cc1 (stereo not shown) [Example 13, 6-(4-([1,1′-biphenyl]-4-ylmethyl)thiophene-3-carboxamido)spiro[3.3]heptane-2-carboxylic acid] | excellent inhibitory activity | excellent inhibitory activity |

Source: patent US20250161271A1, “PHARMACEUTICAL COMPOSITION FOR TREATING CANCER, COMPRISING ANTICANCER AGENT AND NOVEL COMPOUND HAVING INHIBITORY ACTIVITY WITH RESPECT TO PROSTAGLANDIN E2 RECEPTORS” (KANAPH THERAPEUTICS INC., priority 2022, published 2025)
